Patent publication US20130280279A1, “PHARMACEUTICAL COMPOSITION OF A COMPLEX OF AN ANTI-DIG ANTIBODY AND DIGOXIGENIN THAT IS CONJUGATED TO A PEPTIDE” (HOFFMANN-LA ROCHE INC., priority 2011, published 2013)
No constants are given. Whether binding was seen depends on the method and setting. Binding can be weak; no strength is given.

Molecular target: mono-digoxigenated protein DIG-myoglobin
Assay: SPR, binding to mono-digoxigenated DIG-myoglobin

B1: humanized <Dig> IgG (antibody, V domains shown)
VH: QVQLVESGGGLVKPGGSLRLSCAASGFTFSDYAMSWIRQAPGKGLEWVSSINIGATYIYYADSVKGRFTISRDNAKNSLYLQMNSLRAEDTAVYYCARPGSPYEYDKAYYSMAYWGQGTTVTVSS
VL: DIQMTQSPSSLSASVGDRVTITCRASQDIKNYLNWYQQKPGKAPKLLIYYSSTLLSGVPSRFSGSGSGTDFTLTISSLQPEDFATYYCQQSITLPPTFGGGTKVEIKR
binding: binds

B2: murine <Dig> IgG1 kappa from mouse hybridoma clone 19-11 (antibody, V domains shown)
VH: EVQLVESGGGLVKPGGSLKLSCAVSGFTFSDYAMSWIRQTPENRLEWVASINIGATYAYYPDSVKGRFTISRDNAKNTLFLQMSSLGSEDTAMYYCARPGSPYEYDKAYYSMAYWGPGTSVTVSS
VL: DVQMTQSTSSLSASLGDRVTISCRASQDIKNYLNWYQQKPGGTVKLLIYYSSTLLSGVPSRFSGRGSGTDFSLTITNLEREDIATYFCQQSITLPPTFGGGTKLEIK
binding: binds
